Experimental data as given in paper PMC2773741.
No constants are given. Whether binding was seen depends on the method and setting. Binding seen in cells or lysates may run through a third protein. Some entries that bind do so weakly or less than the wild type.

Chains of the proteins cited; added tags and fusions are not shown. Lines headed by an entry give the natural chain unless they say otherwise; changes in a name come on top. A line that says so, or that is headed by a name, gives the form on record, which may keep a tag or linker. Residues count along the entry.
UniProt O43186: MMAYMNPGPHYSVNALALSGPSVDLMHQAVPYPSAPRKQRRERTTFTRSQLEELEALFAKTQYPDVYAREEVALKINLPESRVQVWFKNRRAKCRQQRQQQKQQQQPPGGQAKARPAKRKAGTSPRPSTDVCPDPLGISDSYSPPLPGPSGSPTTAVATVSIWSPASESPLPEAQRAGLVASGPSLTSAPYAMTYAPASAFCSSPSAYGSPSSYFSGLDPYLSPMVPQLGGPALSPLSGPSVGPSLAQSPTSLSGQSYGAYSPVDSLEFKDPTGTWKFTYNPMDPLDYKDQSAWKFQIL
UniProt P54845: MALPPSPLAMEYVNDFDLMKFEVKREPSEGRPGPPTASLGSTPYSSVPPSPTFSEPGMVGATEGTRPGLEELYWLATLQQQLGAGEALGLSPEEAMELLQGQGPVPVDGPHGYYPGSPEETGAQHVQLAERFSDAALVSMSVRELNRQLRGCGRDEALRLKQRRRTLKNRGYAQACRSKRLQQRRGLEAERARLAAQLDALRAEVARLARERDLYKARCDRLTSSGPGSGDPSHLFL
NR2E3 p.Q350X (Q9Y5X4, residues 1-349): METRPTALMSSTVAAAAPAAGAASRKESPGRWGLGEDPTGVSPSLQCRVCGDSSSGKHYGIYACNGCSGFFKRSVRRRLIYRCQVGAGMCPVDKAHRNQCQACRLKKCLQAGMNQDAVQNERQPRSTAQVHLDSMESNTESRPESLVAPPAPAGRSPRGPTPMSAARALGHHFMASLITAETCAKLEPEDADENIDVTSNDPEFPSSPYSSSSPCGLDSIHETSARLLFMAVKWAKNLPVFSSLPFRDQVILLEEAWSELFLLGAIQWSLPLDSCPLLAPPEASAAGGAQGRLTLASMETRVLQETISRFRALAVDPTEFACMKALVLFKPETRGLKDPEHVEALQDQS
NR2E3 p.A256E (Q9Y5X4-1, form named): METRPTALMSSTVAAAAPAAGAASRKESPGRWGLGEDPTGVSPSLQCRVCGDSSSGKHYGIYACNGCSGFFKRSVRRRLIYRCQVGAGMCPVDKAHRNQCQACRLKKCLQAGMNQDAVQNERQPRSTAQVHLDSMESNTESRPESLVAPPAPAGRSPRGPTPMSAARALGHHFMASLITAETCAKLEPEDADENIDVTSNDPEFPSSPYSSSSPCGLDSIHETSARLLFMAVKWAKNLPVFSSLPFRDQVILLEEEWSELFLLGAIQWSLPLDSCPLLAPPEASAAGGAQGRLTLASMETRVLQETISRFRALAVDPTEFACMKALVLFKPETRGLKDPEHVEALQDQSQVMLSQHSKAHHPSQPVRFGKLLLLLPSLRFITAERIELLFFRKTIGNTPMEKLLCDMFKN
NR2E3 p.E121K (Q9Y5X4-1, form named): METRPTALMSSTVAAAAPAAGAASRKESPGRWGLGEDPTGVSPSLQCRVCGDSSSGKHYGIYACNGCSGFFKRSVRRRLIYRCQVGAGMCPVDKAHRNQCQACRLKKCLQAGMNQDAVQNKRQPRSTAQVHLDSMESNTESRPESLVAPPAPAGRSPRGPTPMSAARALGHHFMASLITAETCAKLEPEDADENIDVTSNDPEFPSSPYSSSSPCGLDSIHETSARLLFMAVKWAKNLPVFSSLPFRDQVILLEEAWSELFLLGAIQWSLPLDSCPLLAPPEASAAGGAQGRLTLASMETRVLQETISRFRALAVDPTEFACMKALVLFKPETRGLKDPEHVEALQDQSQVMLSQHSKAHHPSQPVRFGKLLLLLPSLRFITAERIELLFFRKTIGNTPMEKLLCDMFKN
NR2E3 p.G56R (Q9Y5X4-1, form named): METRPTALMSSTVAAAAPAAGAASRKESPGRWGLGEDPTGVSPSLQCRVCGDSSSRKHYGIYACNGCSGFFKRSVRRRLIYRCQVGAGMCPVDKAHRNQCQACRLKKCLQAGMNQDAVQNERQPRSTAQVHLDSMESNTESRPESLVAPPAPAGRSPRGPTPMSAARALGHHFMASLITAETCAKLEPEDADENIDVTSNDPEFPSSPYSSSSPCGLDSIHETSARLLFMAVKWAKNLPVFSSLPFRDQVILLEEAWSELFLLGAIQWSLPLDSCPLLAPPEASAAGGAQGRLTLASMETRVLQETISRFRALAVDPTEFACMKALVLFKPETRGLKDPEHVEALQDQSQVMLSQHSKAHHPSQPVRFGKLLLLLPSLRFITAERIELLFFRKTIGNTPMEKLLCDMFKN
NR2E3 p.G88V (Q9Y5X4-1, form named): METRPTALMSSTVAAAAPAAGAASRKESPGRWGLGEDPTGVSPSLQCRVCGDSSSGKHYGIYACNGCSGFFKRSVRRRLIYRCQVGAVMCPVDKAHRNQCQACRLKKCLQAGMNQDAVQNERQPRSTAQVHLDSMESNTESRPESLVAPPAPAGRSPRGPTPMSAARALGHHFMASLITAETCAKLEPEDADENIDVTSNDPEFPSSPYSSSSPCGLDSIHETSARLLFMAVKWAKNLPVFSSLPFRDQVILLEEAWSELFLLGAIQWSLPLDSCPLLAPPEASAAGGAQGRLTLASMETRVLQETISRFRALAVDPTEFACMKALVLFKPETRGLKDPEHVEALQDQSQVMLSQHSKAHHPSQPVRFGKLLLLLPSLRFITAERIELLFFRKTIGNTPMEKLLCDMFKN
NR2E3 p.L263P (Q9Y5X4-1, form named): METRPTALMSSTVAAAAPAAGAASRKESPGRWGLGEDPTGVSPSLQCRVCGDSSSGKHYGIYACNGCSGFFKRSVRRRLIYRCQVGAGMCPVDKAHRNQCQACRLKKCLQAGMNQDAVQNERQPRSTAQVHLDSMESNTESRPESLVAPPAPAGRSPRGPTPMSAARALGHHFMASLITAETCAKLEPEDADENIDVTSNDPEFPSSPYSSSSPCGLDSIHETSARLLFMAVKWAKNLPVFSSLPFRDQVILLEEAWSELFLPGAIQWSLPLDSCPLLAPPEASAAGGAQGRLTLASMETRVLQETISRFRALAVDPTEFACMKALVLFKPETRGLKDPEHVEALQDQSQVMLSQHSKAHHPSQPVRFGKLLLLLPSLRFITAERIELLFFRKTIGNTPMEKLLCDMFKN
NR2E3 p.L336P (Q9Y5X4-1, form named): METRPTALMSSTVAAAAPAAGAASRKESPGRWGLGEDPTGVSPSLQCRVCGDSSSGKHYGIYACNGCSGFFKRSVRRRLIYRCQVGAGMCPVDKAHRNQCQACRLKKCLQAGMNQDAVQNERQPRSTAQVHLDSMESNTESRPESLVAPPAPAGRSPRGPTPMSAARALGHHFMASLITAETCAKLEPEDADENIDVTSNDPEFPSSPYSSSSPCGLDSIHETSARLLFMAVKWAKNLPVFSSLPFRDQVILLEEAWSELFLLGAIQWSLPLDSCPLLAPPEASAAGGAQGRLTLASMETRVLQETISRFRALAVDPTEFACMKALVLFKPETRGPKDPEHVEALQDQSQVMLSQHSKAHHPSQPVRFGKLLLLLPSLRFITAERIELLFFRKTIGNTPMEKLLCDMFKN
NR2E3 p.L353V (Q9Y5X4-1, form named): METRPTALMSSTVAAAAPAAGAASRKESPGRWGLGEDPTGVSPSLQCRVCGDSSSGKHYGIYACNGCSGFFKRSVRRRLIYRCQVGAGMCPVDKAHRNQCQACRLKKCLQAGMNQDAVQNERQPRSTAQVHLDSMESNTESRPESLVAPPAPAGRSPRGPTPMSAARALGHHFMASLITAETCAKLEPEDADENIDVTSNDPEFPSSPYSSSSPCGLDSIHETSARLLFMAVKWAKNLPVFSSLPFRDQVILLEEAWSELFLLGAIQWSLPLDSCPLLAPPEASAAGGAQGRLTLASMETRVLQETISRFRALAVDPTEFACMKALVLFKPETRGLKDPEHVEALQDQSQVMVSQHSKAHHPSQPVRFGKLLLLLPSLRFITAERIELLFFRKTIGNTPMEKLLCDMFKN
NR2E3 p.M407K (Q9Y5X4-1, form named): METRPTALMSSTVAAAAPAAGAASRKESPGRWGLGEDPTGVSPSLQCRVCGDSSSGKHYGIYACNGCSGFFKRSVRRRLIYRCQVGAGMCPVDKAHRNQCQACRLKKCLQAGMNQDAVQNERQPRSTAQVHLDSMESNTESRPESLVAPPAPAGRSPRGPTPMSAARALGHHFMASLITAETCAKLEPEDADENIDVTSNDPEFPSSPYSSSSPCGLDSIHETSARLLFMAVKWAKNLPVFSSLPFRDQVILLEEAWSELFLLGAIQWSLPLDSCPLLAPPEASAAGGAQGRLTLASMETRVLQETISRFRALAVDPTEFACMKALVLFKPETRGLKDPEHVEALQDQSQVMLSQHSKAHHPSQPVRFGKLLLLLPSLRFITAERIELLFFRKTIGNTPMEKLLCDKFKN
NR2E3 p.N65_C67del (Q9Y5X4-1, form named): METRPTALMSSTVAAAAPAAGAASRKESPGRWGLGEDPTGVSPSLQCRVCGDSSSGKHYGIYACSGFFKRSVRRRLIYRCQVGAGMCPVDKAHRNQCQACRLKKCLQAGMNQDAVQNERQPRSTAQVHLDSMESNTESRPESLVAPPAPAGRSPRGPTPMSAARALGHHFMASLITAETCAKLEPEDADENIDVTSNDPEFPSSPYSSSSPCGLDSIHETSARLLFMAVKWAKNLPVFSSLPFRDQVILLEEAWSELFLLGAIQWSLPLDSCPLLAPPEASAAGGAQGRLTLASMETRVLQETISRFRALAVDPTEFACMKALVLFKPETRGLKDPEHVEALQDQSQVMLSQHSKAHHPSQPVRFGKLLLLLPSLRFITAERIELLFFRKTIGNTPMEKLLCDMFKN
NR2E3 p.R76Q (Q9Y5X4-1, form named): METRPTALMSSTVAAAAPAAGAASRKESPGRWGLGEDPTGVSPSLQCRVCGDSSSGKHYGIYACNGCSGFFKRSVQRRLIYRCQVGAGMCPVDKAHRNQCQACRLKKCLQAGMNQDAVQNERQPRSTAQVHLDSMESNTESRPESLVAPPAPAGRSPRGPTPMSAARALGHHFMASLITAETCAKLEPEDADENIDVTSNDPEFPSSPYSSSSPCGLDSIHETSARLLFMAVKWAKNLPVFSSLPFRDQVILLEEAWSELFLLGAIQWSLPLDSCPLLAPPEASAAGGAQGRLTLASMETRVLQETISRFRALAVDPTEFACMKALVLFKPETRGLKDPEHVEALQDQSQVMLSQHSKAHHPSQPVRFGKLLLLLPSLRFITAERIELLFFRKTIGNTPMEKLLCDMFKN
NR2E3 p.R76W (Q9Y5X4-1, form named): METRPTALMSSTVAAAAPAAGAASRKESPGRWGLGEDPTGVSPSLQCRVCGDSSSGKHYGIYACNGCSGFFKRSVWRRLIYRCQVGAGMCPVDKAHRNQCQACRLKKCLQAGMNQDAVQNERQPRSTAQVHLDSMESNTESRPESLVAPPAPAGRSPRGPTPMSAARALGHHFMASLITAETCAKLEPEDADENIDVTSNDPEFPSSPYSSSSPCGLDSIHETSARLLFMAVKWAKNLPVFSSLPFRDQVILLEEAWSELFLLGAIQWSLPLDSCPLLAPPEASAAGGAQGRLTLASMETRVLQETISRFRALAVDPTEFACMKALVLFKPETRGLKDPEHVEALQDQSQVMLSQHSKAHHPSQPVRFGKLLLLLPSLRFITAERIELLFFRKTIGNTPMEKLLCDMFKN
NR2E3 p.R97H (Q9Y5X4-1, form named): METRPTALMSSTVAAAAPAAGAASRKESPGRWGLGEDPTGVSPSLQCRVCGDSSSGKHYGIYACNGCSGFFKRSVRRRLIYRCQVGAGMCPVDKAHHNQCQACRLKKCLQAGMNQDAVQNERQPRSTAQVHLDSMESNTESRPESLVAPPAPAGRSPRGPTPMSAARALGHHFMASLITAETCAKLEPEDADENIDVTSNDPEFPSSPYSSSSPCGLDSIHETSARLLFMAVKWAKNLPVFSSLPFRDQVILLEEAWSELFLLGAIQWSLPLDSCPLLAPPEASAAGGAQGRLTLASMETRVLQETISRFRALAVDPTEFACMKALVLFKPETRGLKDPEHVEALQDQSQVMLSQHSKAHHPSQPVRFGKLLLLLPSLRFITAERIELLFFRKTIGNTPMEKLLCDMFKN
NR2E3 p.R104Q (Q9Y5X4-1, form named): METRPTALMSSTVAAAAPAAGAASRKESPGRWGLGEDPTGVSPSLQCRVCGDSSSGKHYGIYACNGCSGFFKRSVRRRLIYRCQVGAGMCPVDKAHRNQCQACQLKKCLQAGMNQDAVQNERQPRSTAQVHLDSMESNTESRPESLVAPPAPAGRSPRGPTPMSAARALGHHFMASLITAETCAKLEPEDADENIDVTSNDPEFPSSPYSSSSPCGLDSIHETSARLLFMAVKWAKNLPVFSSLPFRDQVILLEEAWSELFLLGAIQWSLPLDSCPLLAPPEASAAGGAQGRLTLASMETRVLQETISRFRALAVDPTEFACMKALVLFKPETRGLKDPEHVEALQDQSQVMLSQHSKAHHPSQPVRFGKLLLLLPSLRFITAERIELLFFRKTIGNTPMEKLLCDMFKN

Legend:
[1] = target: cone-rod homeobox (CRX), V5-tagged (UniProt O43186); assay: co-IP; COS-1 cells cotransfected with Xpress-tagged WT or mutant NR2E3 and pED-NRL-V5 or -CRX-V5; sonicated cell extracts in 1x PBS with protease inhibitors; Protein-G beads and goat anti-V5 antibody overnight at 4 °C; beads washed with 1x PBS, 1% Triton X-100; NR2E3 detected with mouse anti-Xpress antibody
[2] = target: neural retina leucine zipper (NRL), V5-tagged (UniProt P54845); assay: as above

Substance	binding [1]	binding [2]
NR2E3 p.A256E (from UniProt Q9Y5X4-1 1-410)	binds	binds
NR2E3 p.E121K (from UniProt Q9Y5X4-1 1-410)	binds	binds
NR2E3 p.G56R (from UniProt Q9Y5X4-1 1-410)	binds	binds
NR2E3 p.G88V (from UniProt Q9Y5X4-1 1-410)	binds	binds
NR2E3 p.L263P (from UniProt Q9Y5X4-1 1-410)	binds	binds
NR2E3 p.L336P (from UniProt Q9Y5X4-1 1-410)	binds	
NR2E3 p.L353V (from UniProt Q9Y5X4-1 1-410)	binds	
NR2E3 p.M407K (from UniProt Q9Y5X4-1 1-410)	binds	binds
NR2E3 p.N65_C67del (from UniProt Q9Y5X4-1 1-410)	binds	binds
NR2E3 p.Q350X (from UniProt Q9Y5X4-1 1-349)	binds	binds
NR2E3 p.R76Q (from UniProt Q9Y5X4-1 1-410)		binds
NR2E3 p.R76W (from UniProt Q9Y5X4-1 1-410)		binds
NR2E3 p.R97H (from UniProt Q9Y5X4-1 1-410)		binds
NR2E3 p.R104Q (from UniProt Q9Y5X4-1 1-410)		binds
NR2E3 p.R309G (from UniProt Q9Y5X4-1 1-410)	binds	binds
NR2E3 p.R311Q (from UniProt Q9Y5X4-1 1-410)	binds	binds
NR2E3 p.R334G (from UniProt Q9Y5X4-1 1-410)	binds	binds
NR2E3 p.R385P (from UniProt Q9Y5X4-1 1-410)	binds	binds
NR2E3 p.V232I (from UniProt Q9Y5X4-1 1-410)	binds	binds
NR2E3 p.V302I (from UniProt Q9Y5X4-1 1-410)	binds	binds
NR2E3 p.W234S (from UniProt Q9Y5X4-1 1-410)	binds	binds
photoreceptor-specific nuclear receptor NR2E3 (nuclear receptor subfamily 2 group E member 3), wild type (from UniProt Q9Y5X4-1 1-410)	binds	binds
